Assay results from US20090062401A1, “DECALINE-DERIVED COMPOUNDS AS […] ACTIVE AGENTS” (UNIVERSITAT DORTMUND, priority 2004, published 2009).
Some results were stated once for a whole list of compounds, not compound by compound. For part of these data: At least one compound was matched to its structure with a doubt left. Some ranges recur; such a range may be that of the whole group of compounds.

The chains behind the UniProt entries cited, without tags or fusion partners.
UniProt P51452, whole entry, species assumed: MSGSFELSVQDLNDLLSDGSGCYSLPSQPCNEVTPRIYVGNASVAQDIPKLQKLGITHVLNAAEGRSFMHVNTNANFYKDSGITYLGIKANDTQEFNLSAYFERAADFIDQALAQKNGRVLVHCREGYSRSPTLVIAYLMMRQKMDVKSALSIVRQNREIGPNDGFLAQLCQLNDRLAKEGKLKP

Key:
Format in all cases: biochemical
[1] = molecular target: VHR (Homo sapiens, UniProt P51452); experiment: VHR phosphatase inhibition, general phosphatase assay using para-nitrophenylphosphate; settings: read-out: IC50 Target VHR
Description: (§1) Assays protocols for the other enzymes mentioned herein (MtPTPA, PP1, VHR, PTP1B) are disclosed in Schweizer R A S, Atanasov, G A, Frey B M, and Odermatt A, Mol. Cell. Endocrinol. 2003, 212, 41-49 and Barratte, B., Meijer L., Galaktionov K. & Beach D, Anticancer Res. 1992, 12, 873-880. For determination of the phosphatase activity, a general phosphatase assay using para-nitrophenylphosphate was applied.

[2] = molecular target: T1, PTP1B (Homo sapiens, UniProt P18031); experiment: PTP1B phosphatase inhibition, general phosphatase assay using para-nitrophenylphosphate; settings: read-out: IC50 Target PTP1B
T1 sequence (P18031 1-435): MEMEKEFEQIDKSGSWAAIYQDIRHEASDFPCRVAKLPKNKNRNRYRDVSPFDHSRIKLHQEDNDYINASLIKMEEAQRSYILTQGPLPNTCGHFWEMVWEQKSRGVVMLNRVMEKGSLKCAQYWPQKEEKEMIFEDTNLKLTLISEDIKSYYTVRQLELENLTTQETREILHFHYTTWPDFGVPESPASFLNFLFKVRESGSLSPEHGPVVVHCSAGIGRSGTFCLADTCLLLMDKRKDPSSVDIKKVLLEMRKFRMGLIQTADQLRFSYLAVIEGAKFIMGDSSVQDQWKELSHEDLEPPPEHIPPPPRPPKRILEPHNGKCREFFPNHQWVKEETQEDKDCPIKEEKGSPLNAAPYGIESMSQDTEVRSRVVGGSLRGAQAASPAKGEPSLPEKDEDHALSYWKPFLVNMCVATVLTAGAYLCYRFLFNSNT
Description: as §1

[3] = molecular target: PP1; experiment: PP1 phosphatase inhibition, general phosphatase assay using para-nitrophenylphosphate; settings: read-out: IC50 Target PP1
Description: as §1

Compound | IC50 [1] [µM] | IC50 [2] [µM] | IC50 [3] [µM]
C=CC[C@@]12C(=CC(=O)/C(=C/c3ccccc3C#Cc3cccc(F)c3)[C@@H]1C)CCC[C@@H]2O [Compound 333, (3E,4R,4aS,5S)-3-{2-[2-(3-Fluorphenyl)ethinyl]benzyliden}-4a-allyl-4,4a,5,6,7,8-hexahydro-5-hydroxy-4-methylnaphthalen-2(3H)-one] | 10 to 50 | – | –
C=CC[C@]12C(CCC[C@@H]1O)C(C)C(NC1CCCCC1)/C(=C/c1cccc(C#Cc3cccc(F)c3)c1)[C@@H]2C (stereo partly drawn) [Compound 347, (E,1S,8S,8aR)-7-{3-[2-(3-Fluorphenyl)ethinyl]benzyliden}-8a-allyl-6-(cyclohexylamino)-decahydro-5,8-dimethylnaphthalen-1-ol] | 10 to 50 | – | –
CC1=C2CCC[C@H](O)[C@@]2(C)C/C(=C\c2ccccc2Br)C1=O [Compound 63, (3E,4aS,5S)-3-(2-Brombenzyliden)-4,4a,5,6,7,8-hexahydro-5-hydroxy-1,4a-dimethylnaphthalen-2(3H)-one] | – | 10 to 50 | –
CC1=C2CCC[C@H](O)[C@@]2(C)C/C(=C\c2cc(Br)cs2)C1=O [Compound 9, (3E,4aS,5S)-3-[(4-Bromthiophen-2-yl)methylen]-4,4a,5,6,7,8-hexahydro-5-hydroxy-1,4a-dimethylnaphthalen-2(3H)-one] | < 10 | 10 to 50 | –
CC1=C2CCC[C@H](O)[C@@]2(C)C/C(=C\c2ccc(Nc3ccc(I)cc3)cc2)C1=O [Compound 79, (3E,4aS,5S)-3-[4-(4-Iodphenylamino)benzyliden]-4,4a,5,6,7,8-hexahydro-5-hydroxy-1,4a-dimethylnaphthalen-2(3H)-one] | 10 to 50 | 10 to 50 | –
CC1(Cc2ccccc2)C(Nc2ccc(I)cc2)CC[C@@]2(C)C1CCC[C@@H]2O (stereo partly drawn) [Compound 143, (1S,8aS)-6-(4-Iodphenylamino)-5-benzyl-decahydro-5,8a-dimethylnaphthalen-1-ol] | 10 to 50 | – | –
CCOC(C#Cc1ccc(/C=C2\C[C@@]3(C)C(=C(C)C2=O)CCC[C@@H]3O)cc1)OCC [Compound 46, (3E,4aS,5S)-3-[4-(3,3-Diethoxyprop-1-inyl)benzyliden]-4,4a,5,6,7,8-hexahydro-5-hydroxy-1,4a-dimethylnaphthalen-2(3H)-on] | – | – | 10 to 50
CC1=C2CCC[C@H](O)[C@@]2(C)C/C(=C\c2cccc(I)c2)C1=O [Compound 68, (3E,4aS,5S)-3-(3-Iodbenzyliden)-4,4a,5,6,7,8-hexahydro-5-hydroxy-1,4a-dimethylnaphthalen-2(3H)-one] | 10 to 50 | – | –
CC1=C2CCC[C@H](O)[C@@]2(C)C/C(=C\c2ccc(Br)s2)C1=O [Compound 27, (3E,4aS,5S)-3-[(5-Bromthiophen-2-yl)methylen]-4,4a,5,6,7,8-hexahydro-5-hydroxy-1,4a-dimethylnaphthalen-2(3H)-one] | 10 to 50 | 10 to 50 | –
CCN(CC#Cc1ccc(/C=C2\C[C@@]3(C)C(=C(C)C2=O)CCC[C@@H]3O)cc1)Cc1ccccc1 [Compound 50, (3E,4aS,5S)-3-{4-[3-(N-Ethyl-N-benzylamino)prop-1-inyl]-benzyliden}-4,4a,5,6,7,8-hexahydro-5-hydroxy-1,4a-dimethylnaphthalen-2(3H)-one] | 10 to 50 | 10 to 50 | –
CCCCN=CC1=C2CCCC(=O)[C@@]2(C)CCC1=O [Compound 410, (4aS)-5-Butyliminomethyl-8a-methyl-3,4,8,8a-tetrahydro-2H,7H-naphthalen-1,6-dione] | 10 to 50 | – | –
CC1=C2CCC[C@H](O)[C@@]2(C)C/C(=C\c2ccc(C#CC(C)(C)O)cc2)C1=O [Compound 44, (3E,4aS,5S)-3-[4-(3-Hydroxy-3-methylbut-1-inyl)benzyliden]-4,4a,5,6,7,8-hexahydro-5-hydroxy-1,4a-dimethyl-naphthalen-2(3H)-one] | – | – | 10 to 50
CC1=C2CCC[C@H](O)[C@@]2(C)C/C(=C\c2ccc(C#CC(C)OC(C)(C)C)cc2)C1=O (stereo partly drawn) [Compound 38, (3E,4aS,5S)-3-[4-(3-tert-Butoxybut-1-inyl)benzyliden]-4,4a,5,6,7,8-hexahydro-5-hydroxy-1,4a-dimethylnaphthalen-2(3H)-one] | – | – | 10 to 50
CC1=C2CCC[C@H](O)[C@@]2(C)C/C(=C\c2cccc(Br)c2)C1=O [Compound 64, (3E,4aS,5S)-3-(3-Brombenzyliden)-4,4a,5,6,7,8-hexahydro-5-hydroxy-1,4a-dimethylnaphthalen-2(3H)-one] | – | 10 to 50 | –
C=C1CC[C@]2(C)C(=O)/C(=C/c3ccco3)CCC2=C1C [Compound 393, (6E,4aS)-2-Furan-2-ylmethylene-5,8a-dimethyl-6-methylene-3,4,6,7,8,8a-hexahydro-2H-naphthalen-1-one] | 10 to 50 | 10 to 50 | –
CCCCC#Cc1ccc(/C=C2\C[C@@]3(C)C(=C(C)C2=O)CCC[C@@H]3O)cc1 [Compound 40, (3E,4aS,5S)-3-[4-(Hex-1-inyl)benzyliden]-4,4a,5,6,7,8-hexahydro-5-hydroxy-1,4a-dimethyl-naphthalen-2(3H)-one] | – | – | 10 to 50
C=CC[C@]12C(CCC[C@@H]1O)C(C)C(NCCCC)/C(=C/c1cccc(C#Cc3cccc(F)c3)c1)[C@@H]2C (stereo partly drawn) [Compound 362, (E,1S,8S,8aR)-7-{3-[2-(3-Fluorphenyl)ethinyl]benzyliden}-8a-allyl-6-(butylamino)-decahydro-5,8-dimethylnaphthalen-1-ol] | 10 to 50 | – | –
C[C@]12C/C(=C\c3ccc(Br)cc3)C(=O)C=C1CCC[C@@H]2O [Compound 198, (3E,4aS,5S)-3-(4-Brombenzyliden)-4,4a,5,6,7,8-hexahydro-5-hydroxy-4a-methylnaphthalen-2(3H)-one] | 10 to 50 | – | –
CC1=C2CCC[C@H](O)[C@@]2(C)C/C(=C\c2ccc(C#CC3C=CCCC3)cc2)C1=O (stereo partly drawn) [Compound 39, (3E,4aS,5S)-3-[4-(2-Cyclo-hexenylethinyl)benzyliden]-4,4a,5,6,7,8-hexahydro-5-hydroxy-1,4a-dimethylnaphthalen-2(3H)-on] | 10 to 50 | 10 to 50 | –
CC1C(=O)/C(=C/c2cccc(I)c2)C[C@@]2(C)C1CCC[C@@H]2O (stereo partly drawn) [Compound 202, (E,4aS,5S)-3-(3-Iodbenzyliden)-octahydro-5-hydroxy-1,4a-dimethylnaphthalen-2(1H)-one] | 10 to 50 | – | –
CC1C(=O)/C(=C/c2ccc(Cl)cc2)C[C@@]2(C)C1CCC[C@@H]2O (stereo partly drawn) [Compound 83, (E,4aS,5S)-3-(4-Chlorbenzyliden)-octahydro-5-hydroxy-1,4a-dimethylnaphthalen-2(1H)-one] | – | 10 to 50 | –
CC(C)CC1(C)C(=O)CC[C@@]2(C)C1CCC[C@@H]2O (stereo partly drawn) [Compound 406, (4aS,5S)-5-Hydroxy-1-isobutyl-1,4a-dimethyl-1-octahydro-naphthalen-2-one] | 10 to 50 | 10 to 50 | –
(35,4aS,5S)-3-[4-(17-Ethinyl-ostradiol)benzyliden]-4,4a,5,6,7,8-hexahydro-5-hydroxy-1,4a-dimethylnaphthalen-2(3H)-one [Compound 54] | 10 to 50 | 10 to 50 | 10 to 50
CC1=C2CCC[C@H](O)[C@@]2(C)C/C(=C\c2ccc(I)cc2)C1NC1CCCCC1 (stereo partly drawn) [Compound 141, (1S,7E,8aS)-7-(4-Iodbenzyliden)-6-(cyclohexylamino)-1,2,3,4,6,7,8,8a-octahydro-5,8a-dimethylnaphthalen-1-ol] | 10 to 50 | – | –
C[C@H]1/C(=C\c2ccccc2Br)C(=O)C=C2CCC[C@H](O)[C@]21C [Compound 205, (3E,4R,4aS,5S)-3-(2-Brombenzyliden)-4,4a,5,6,7,8-hexahydro-5-hydroxy-4,4a-dimethylnaphthalen-2(3H)-one] | 10 to 50 | – | –
CC1=C2CCC[C@H](O)[C@@]2(C)C/C(=C\c2c(F)cccc2Cl)C1=O [Compound 3, (3E,4aS,5S)-3-(2-Chlor-6-fluorbenzyliden)-4,4a,5,6,7,8-hexahydro-5-hydroxy-1,4a-dimethyl-naphthalen-2(3H)-one] | 10 to 50 | 10 to 50 | –
